According to the supplement of paper PMC10849652:
The list shows a part of the results.

Amino acid sequences for entries named in this document (tags omitted). A change or cut given only in a name is not applied to a line headed by its entry.
UniProt Q9UNS2: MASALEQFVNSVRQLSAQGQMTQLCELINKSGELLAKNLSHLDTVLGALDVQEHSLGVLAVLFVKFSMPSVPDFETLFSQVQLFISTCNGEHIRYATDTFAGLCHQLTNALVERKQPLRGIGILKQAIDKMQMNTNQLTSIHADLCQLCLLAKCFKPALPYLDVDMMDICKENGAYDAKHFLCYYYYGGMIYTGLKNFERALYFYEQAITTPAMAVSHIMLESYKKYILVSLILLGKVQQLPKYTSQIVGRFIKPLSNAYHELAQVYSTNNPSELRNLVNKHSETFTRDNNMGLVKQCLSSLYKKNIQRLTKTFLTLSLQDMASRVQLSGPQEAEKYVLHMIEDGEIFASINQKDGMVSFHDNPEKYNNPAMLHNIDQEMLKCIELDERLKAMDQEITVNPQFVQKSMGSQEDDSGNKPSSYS
UniProt P12111: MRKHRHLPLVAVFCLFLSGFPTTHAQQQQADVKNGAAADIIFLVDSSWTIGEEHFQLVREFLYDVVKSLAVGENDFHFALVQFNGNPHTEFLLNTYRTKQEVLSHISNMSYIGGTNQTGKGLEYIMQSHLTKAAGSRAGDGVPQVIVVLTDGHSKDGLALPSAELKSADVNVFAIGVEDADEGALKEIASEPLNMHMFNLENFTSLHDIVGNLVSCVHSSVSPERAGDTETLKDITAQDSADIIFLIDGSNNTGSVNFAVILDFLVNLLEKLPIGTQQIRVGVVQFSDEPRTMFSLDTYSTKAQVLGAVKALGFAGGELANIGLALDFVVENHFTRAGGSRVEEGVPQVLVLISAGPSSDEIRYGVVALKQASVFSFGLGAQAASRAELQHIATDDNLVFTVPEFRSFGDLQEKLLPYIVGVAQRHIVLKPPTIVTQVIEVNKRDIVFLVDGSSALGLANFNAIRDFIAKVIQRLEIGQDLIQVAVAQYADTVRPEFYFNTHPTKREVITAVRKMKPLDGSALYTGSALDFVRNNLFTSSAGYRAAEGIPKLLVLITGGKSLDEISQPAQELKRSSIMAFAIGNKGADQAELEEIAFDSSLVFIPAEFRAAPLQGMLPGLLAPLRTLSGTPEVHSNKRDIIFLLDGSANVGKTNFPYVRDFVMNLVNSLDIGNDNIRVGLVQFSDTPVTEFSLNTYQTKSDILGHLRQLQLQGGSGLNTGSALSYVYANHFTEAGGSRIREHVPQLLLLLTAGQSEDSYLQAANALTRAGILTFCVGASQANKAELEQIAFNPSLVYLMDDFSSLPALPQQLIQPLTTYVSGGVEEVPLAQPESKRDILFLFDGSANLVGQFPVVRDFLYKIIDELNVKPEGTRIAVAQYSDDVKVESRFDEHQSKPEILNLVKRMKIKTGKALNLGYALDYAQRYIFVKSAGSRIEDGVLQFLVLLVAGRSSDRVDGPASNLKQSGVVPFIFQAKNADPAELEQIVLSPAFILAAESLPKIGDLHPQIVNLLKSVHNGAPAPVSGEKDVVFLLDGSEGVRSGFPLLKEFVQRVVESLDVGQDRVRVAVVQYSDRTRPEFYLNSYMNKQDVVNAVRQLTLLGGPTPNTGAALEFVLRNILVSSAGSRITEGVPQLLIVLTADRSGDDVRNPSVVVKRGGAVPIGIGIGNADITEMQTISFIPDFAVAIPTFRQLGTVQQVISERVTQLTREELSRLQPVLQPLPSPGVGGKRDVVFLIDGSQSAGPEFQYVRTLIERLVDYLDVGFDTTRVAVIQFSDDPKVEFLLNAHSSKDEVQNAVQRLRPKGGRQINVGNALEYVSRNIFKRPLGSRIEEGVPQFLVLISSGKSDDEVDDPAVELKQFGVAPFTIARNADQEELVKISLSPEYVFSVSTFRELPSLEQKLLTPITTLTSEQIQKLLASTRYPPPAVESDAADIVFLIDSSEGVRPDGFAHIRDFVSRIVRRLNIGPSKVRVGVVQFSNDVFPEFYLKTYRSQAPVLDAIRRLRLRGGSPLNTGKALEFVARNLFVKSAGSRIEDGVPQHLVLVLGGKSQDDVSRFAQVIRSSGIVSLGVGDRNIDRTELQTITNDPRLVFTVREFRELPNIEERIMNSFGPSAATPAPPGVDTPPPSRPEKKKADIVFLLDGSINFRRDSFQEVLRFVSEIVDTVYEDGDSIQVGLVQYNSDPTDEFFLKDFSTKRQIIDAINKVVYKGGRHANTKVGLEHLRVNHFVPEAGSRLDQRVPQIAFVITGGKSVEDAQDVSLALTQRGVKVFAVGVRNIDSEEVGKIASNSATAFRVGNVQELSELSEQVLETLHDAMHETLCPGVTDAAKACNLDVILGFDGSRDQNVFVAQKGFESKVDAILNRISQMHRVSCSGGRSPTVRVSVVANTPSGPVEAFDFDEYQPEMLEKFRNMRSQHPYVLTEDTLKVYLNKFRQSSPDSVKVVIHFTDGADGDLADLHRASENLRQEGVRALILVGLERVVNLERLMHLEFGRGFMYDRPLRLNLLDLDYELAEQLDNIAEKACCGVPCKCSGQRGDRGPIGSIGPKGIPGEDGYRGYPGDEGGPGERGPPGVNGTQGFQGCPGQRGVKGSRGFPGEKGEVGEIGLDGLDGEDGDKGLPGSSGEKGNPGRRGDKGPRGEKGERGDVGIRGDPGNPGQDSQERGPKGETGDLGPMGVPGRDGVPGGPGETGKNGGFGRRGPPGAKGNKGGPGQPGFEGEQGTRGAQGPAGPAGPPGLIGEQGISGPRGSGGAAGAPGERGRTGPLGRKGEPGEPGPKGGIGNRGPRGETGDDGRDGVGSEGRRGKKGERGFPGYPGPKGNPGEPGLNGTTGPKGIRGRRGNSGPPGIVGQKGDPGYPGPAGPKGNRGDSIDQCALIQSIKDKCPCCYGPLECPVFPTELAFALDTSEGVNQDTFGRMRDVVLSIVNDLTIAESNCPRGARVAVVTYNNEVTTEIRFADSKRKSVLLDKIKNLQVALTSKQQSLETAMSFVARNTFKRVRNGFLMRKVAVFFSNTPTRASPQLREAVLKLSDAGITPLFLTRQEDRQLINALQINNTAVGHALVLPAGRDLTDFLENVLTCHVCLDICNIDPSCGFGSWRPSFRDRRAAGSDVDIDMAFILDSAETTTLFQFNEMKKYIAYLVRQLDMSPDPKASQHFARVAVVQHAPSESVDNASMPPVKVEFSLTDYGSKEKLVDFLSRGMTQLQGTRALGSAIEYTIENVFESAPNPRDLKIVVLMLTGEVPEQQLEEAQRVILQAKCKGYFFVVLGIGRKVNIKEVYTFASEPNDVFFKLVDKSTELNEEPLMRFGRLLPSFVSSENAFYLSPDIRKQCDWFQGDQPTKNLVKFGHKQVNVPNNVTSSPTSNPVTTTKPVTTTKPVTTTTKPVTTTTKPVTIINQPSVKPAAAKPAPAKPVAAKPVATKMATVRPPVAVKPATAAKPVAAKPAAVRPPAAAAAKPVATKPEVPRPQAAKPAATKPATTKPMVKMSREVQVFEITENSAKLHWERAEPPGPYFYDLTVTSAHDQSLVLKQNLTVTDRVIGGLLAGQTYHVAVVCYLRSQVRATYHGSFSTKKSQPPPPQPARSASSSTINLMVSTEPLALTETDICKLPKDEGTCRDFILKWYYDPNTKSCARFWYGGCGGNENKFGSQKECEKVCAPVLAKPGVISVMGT
UniProt P23786: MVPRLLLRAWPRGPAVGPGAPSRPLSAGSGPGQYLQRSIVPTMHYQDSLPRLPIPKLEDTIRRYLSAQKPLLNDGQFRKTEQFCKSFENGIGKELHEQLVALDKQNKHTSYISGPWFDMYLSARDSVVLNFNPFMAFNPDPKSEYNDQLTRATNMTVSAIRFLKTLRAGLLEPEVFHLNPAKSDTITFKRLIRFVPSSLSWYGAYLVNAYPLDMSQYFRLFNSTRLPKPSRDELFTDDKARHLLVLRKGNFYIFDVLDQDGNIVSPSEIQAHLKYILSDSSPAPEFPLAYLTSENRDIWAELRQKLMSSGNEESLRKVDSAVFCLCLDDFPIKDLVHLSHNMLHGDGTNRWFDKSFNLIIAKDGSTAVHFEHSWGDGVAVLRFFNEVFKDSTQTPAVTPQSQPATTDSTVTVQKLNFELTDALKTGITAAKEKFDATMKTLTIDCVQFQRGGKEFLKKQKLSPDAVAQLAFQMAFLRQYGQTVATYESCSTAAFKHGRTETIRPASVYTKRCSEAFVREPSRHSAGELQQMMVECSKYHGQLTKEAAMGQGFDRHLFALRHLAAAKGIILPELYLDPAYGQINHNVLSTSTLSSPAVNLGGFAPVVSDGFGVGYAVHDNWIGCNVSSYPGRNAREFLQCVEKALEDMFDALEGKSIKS
UniProt Q5RI15: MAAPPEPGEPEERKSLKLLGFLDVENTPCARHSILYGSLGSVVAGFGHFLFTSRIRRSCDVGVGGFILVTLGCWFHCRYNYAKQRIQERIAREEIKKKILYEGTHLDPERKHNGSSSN
UniProt P12074, whole entry, looked up: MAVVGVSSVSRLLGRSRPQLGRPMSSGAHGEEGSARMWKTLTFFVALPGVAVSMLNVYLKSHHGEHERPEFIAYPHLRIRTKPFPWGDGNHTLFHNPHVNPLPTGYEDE
UniProt Q8IUI8: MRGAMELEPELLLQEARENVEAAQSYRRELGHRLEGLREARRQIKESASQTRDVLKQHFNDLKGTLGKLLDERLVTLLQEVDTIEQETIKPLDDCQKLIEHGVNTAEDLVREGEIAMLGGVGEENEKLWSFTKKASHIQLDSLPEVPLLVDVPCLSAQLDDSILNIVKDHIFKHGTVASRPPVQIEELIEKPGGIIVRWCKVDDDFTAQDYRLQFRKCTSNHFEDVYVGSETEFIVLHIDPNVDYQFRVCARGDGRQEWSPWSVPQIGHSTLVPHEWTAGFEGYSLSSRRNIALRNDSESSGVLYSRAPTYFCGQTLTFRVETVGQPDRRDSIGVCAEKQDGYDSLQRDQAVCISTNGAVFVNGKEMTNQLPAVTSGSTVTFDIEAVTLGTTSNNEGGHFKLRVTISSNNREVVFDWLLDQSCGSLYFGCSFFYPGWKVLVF
UniProt P50416: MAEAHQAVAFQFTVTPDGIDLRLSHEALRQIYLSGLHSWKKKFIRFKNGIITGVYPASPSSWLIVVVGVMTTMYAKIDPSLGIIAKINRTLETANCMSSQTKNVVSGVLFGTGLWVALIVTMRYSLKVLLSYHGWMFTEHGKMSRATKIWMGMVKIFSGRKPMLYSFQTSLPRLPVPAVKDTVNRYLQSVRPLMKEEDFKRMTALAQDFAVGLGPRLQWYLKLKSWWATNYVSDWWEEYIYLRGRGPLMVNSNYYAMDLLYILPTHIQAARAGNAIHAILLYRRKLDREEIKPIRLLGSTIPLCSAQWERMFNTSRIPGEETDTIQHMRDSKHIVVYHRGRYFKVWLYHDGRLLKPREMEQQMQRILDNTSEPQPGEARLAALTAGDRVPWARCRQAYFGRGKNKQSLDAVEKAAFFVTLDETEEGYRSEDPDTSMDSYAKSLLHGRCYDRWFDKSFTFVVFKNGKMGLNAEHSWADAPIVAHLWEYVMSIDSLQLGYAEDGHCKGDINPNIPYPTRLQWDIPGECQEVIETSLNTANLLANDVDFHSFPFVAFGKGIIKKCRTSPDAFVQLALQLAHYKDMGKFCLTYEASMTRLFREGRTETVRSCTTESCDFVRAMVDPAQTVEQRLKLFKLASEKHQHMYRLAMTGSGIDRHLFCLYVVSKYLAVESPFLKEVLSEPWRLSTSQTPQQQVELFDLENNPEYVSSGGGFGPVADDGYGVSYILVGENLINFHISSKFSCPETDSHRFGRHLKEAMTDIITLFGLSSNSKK
UniProt Q8N668, whole entry, looked up: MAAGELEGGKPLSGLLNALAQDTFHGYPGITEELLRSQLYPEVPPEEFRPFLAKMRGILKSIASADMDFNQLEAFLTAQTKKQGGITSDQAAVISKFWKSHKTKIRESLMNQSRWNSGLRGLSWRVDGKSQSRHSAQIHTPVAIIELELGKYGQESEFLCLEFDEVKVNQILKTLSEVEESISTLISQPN
UniProt Q53ET0: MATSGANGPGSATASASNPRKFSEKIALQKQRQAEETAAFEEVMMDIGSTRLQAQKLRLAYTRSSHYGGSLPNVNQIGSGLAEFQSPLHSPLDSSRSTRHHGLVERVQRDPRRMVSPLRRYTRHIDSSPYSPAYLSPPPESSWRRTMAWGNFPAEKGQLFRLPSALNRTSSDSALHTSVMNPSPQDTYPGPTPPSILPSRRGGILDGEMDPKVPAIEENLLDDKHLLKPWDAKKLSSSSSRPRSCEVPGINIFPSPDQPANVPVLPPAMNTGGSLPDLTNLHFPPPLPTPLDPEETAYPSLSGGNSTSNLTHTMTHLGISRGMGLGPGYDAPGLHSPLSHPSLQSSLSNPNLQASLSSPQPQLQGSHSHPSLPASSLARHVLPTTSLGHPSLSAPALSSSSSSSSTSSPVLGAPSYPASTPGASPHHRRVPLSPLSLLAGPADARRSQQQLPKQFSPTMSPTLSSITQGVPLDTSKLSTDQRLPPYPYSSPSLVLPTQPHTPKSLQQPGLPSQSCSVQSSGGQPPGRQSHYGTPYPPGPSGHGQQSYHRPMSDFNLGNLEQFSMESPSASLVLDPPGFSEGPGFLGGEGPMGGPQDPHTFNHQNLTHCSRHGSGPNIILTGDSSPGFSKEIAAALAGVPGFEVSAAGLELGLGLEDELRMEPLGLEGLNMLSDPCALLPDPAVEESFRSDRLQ

The targets below were run with CCn1cc(-c2ccnc3[nH]c(-c4cccc(CN(C)C)c4)cc23)c(-c2ccc(NC(=O)N(C)C)cc2)n1 (assay: log2 fold change, soluble protein after heating vs DMSO (PISA); higher = thermal stabilisation; K562 cells, 10 uM, 30 min; active = over 0.2 and 3.5 SD of the protein, either way, in both replicates (recomputed)).
Procedure, shortened: (§1)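 K562 cells at 2×10^6 cells/mL were exposed to 10 μM compound for 30 min, then aliquots were heated for 3 min across 48°C-58°C, pooled, and extracted in PBS containing 0.5% NP-40 at 4°C. The supernatant after 21,000xg for 90 min was taken as soluble protein and measured by TMTpro 16plex LC-MS/MS with channel sums equalised. Thermal stability is reported relative to control samples, with values from duplicates. Fold changes are given on a log2 scale.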

log2 fold change, inactive:
CS (UniProt O75390) -0.059
CRLS1 (UniProt Q9UJA2) 0.052
COPS3 (UniProt Q9UNS2) -0.014
COPS3 isoform 2 (UniProt Q9UNS2) -0.075
COL6A1 (UniProt P12109) 0.363
CRYM-AS1 (UniProt A6NIL9) -0.029
CPEB4 (UniProt Q17RY0) 0.095
CSE1L (UniProt P55060) -0.068
COL6A3 (UniProt P12111) -0.064
CPSF7 isoform 3 (UniProt Q8N684) -0.015

These targets were tested with CN(C)CC(=O)Nc1ccc2[nH]c(=O)c3ccccc3c2c1 in the same assay as above.
Procedure, shortened: as §1

log2 fold change, inactive:
CPSF1 (UniProt Q10570) -0.104
COPS4 (UniProt Q9BT78) 0.023
COMMD2 (UniProt Q86X83) -0.108
CPD (UniProt O75976) -0.024
COMMD3 (UniProt Q9UBI1) -0.09
COX5A (UniProt P20674) -0.001
COX5B (UniProt P10606) -0.013
CSNK2B (UniProt P67870) 0.027
CPT2 (UniProt P23786) 0.088
CSNK2A1 (UniProt P68400) -0.007
CRK (UniProt P46108) 0.002
COQ9 (UniProt O75208) 0.018
COX20 isoform 2 (UniProt Q5RI15) -0.038
CORO2A (UniProt Q92828) -0.038
COMMD4 (UniProt Q9H0A8) 0.03
COMMD6 isoform 2 (UniProt Q7Z4G1) 0.009
COX6A1 (UniProt P12074) 0.017
CSK (UniProt P41240) 0.024
COMT (UniProt P21964) 0.005
CRLF3 (UniProt Q8IUI8) 0.024
CSNK2A2 (UniProt P19784) -0.006
CPT1A (UniProt P50416) 0.013
CPNE7 (UniProt Q9UBL6) -0.03
COMMD1 (UniProt Q8N668) 0.019
CS (UniProt O75390) 0.032
CRLS1 (UniProt Q9UJA2) -0.024
COPS3 (UniProt Q9UNS2) -0.017
COPS3 isoform 2 (UniProt Q9UNS2) -0.165
COL6A1 (UniProt P12109) 0.039
CRYM-AS1 (UniProt A6NIL9) 0.089
CRTC2 (UniProt Q53ET0) -0.009
CPEB4 (UniProt Q17RY0) 0
CSE1L (UniProt P55060) 0.008
CPSF7 isoform 3 (UniProt Q8N684) -0.014
